The list shows a part of the results. Further columns of the screen follow, without active or inactive calls. Most of these compounds were active or inconclusive in the main read-out, so they are no random draw. Potencies come from curve fits of mixed quality, noted in brackets.
assay: A High-Content qHTS Against Drug Library for the Identification of Small Molecules that Inhibit DYT1 Early Onset Primary Dystonia-Associated Cell Pathology (AID 1645839); conditions: HEK293 Flp-In EGFP-delE TorsinA, punctate imaging, 48 h; measured here: cell count cytotoxicity
Method in brief: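 Flp-In T-REx 293 cells with tetracycline-inducible EGFP-delE hTOR1A (WT EGFP-hTOR1A as reference), 800 cells/well; compound added with tetracycline, 48 h at 37 C. Fixed, permeabilized cells imaged; %pathology (punctate TorsinA) primary, cell count counterscreen.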

| Structure (SMILES) | AC50 |
| --- | --- |
| O=c1[nH]cnc2c1ncn2[C@@H]1O[C@H](CO)[C@@H](O)[C@H]1O | 35.5 µM [falling, single point] |
| CN1CCN(CCC(=O)N2c3ccccc3Sc3ccc(C(F)(F)F)cc32)CC1 | 4.47 µM [falling, full curve, poor fit] |
| c1ccc(-c2ccc(C(c3ccccc3)n3ccnc3)cc2)cc1 (stereo not given) | 11.2 µM [falling, partial curve] |
| Cc1ccccc1C(=O)Nc1ccc(C(=O)N2CCCC(N(C)C)c3ccccc32)cc1 (stereo not given) | 7.08 µM [falling, partial curve, poor fit] |
| O=C(CCCCCCCCC#CI)Oc1ccccc1 | 2.82 µM [falling, single point] |
| CN1CCC(=C2c3ccccc3Sc3ccccc32)CC1 | 25.1 µM [falling, single point] |
| CCC(CC)(CC(=O)Nc1cccc(/C=C/c2nc(C3CCC3)cs2)c1)C(=O)O | 35.5 µM [falling, single point] |
| C[C@H]1C[C@H]2[C@@H]3CCC4=CC(=O)C=C[C@]4(C)[C@H]3C(=O)C[C@]2(C)[C@@]1(O)C(=O)CO | 35.5 µM [rising, single point] |
| NC(=O)c1ccc([N+](=O)[O-])cc1Cl | 3.55 µM [rising, single point] |
| O=C(CS)Nc1ccccc1 | 0.562 µM [falling, full curve, poor fit] |
| C#C[C@]1(OC(C)=O)CC[C@H]2[C@@H]3CCC4=C/C(=N/O)CC[C@@H]4[C@H]3CC[C@@]21CC | 35.5 µM [falling, partial curve, poor fit] |
| O=C1CC(c2ccc(Cl)cc2)CC(=O)N1 | 35.5 µM [rising, partial curve, poor fit] |
| CN1CCCN=C1/C=C/c1cccs1 | 39.8 µM [rising, partial curve, poor fit] |
| NC(=O)NC1NC(=O)NC1=O (stereo not given) | 35.5 µM [rising, single point] |
| CCOC(=O)c1ccc(OCCN2C[C@H](O)[C@@H](O)[C@H](O)[C@H]2CO)cc1 | 12.6 µM [rising, partial curve, poor fit] |
| NC(N)=NCCN1CCCCCCC1 | 0.214 µM [falling, single point] |
| C/C=C(/C(=C/C)c1ccc(OC(C)=O)cc1)c1ccc(OC(C)=O)cc1 | 5.62 µM [falling, full curve, poor fit] |
| CCN(CC)CCN | 14.1 µM [falling, single point] |
| CCN[C@H]1C[C@H](C)S(=O)(=O)c2sc(S(N)(=O)=O)cc21 | 35.5 µM [falling, partial curve, poor fit] |
| CC(Cc1ccccc1)(NC(=O)CN)c1ccccc1 (stereo not given) | 11.2 µM [falling, partial curve, poor fit] |

| Structure (SMILES) | AC50 |
| --- | --- |
| NC1CCN(c2cccc(Cl)n2)CC1 | 12.6 µM [falling, single point] |
| C[C@@H]1CCN(C(=O)[C@H](CCCN=C(N)N)NS(=O)(=O)c2cccc3c2NC[C@H](C)C3)[C@@H](C(=O)O)C1 | 7.08 µM [rising, partial curve, poor fit] |
| CC(C(=O)O)c1cccc(Oc2ccccc2)c1 (stereo not given) | 12.6 µM [falling, single point] |
| CCc1oc2ccccc2c1C(=O)c1cc(Br)c(O)c(Br)c1 | 35.5 µM [falling, single point] |
| Clc1ccc2c(c1)CCc1cccnc1C2=C1CCNCC1 | 20 µM [falling, partial curve, poor fit] |
| C#C[C@]1(O)CC[C@H]2[C@@H]3CCC4=CC(=O)CC[C@@H]4[C@H]3CC[C@@]21C | 0.501 µM [falling, full curve, poor fit] |
| O=C(c1cc(O)c(O)c(O)c1)c1ccc(O)c(O)c1O | 17.8 µM [falling, single point] |
| CCCOC(C(=O)OC1CCN(C)CC1)(c1ccccc1)c1ccccc1 | 35.5 µM [falling, partial curve, poor fit] |
| CO[C@@]1(NC(=O)CSCC#N)C(=O)N2C(C(=O)O)=C(CSc3nnnn3C)CS[C@@H]21 | 35.5 µM [rising, single point] |
| CCO[C@@H]1O[C@H](C(COCc2ccccc2)OCc2ccccc2)[C@H](OCc2ccccc2)[C@H]1O (stereo not given in full) | 35.5 µM [falling, single point] |
| COc1ccc(/C=C/C(=O)c2ccc(OC)cc2OC)cc1 | 35.5 µM [falling, single point] |
| NC(=O)C1(N2CCCCC2)CCN(CCCN2c3ccccc3CCc3ccc(Cl)cc32)CC1 | 2.24 µM [falling, full curve, poor fit] |
| Nc1cc(C(F)(F)F)ccc1S | 12.6 µM [falling, single point] |
| CC[C@]12CCCN3CCc4c(n(c5ccccc45)C(=O)C1)[C@@H]32 | 1 µM [falling, full curve, poor fit] |
| CCCC(=O)c1cc(O)c(O)cc1O | 63.1 µM [falling, single point] |
| Oc1cccc2[nH]ccc12 | 7.94 µM [falling, partial curve, poor fit] |
| Cc1cc(-n2nc3ccc(Cl)cc3n2)c(O)c(C(C)(C)C)c1 | 35.5 µM [rising, partial curve, poor fit] |
| [Cl][In]([Cl])[Cl] | 22.4 µM [falling, partial curve, poor fit] |
| CN1CCCN(C(c2ccccc2)c2ccc(Cl)cc2)CC1 (stereo not given) | 10 µM [falling, partial curve, poor fit] |
| C[C@@]12C(=O)OC(=O)[C@]1(C)C1CCC2O1 | 3.98 µM [falling, full curve] |
